Laboratory results published in publication PMC3245254.
Results are given in words; binding and its absence hold for the method and conditions named. Binding seen in cells or lysates may run through a third protein. Some binding calls cover weakened binding; strength is not graded here.

Sequences of proteins named here, by UniProt entry; tags and fusion partners are left off.
UniProt Q8N668: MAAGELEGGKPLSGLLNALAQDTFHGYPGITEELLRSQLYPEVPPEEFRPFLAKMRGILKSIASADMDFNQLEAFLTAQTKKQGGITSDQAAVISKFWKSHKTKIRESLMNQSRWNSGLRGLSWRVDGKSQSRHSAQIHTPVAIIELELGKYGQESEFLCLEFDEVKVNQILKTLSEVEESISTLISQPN
UniProt Q86X83: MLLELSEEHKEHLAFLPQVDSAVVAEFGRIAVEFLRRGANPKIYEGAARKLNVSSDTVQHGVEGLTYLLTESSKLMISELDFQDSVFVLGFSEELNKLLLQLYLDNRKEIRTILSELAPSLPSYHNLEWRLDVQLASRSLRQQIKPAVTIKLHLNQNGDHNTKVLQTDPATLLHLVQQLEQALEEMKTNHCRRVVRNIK
UniProt Q9NX08: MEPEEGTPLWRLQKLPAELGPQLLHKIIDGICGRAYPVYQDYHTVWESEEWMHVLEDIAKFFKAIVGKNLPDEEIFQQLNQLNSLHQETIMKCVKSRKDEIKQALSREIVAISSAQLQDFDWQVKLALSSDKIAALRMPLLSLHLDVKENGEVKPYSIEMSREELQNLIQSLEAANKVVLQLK
UniProt Q9Y6G5: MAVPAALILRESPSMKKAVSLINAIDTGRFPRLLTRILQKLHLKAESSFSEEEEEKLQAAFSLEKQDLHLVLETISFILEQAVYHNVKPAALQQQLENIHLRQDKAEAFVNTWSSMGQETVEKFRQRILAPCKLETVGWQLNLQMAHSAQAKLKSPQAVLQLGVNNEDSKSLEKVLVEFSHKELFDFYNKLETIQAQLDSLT
UniProt P35670: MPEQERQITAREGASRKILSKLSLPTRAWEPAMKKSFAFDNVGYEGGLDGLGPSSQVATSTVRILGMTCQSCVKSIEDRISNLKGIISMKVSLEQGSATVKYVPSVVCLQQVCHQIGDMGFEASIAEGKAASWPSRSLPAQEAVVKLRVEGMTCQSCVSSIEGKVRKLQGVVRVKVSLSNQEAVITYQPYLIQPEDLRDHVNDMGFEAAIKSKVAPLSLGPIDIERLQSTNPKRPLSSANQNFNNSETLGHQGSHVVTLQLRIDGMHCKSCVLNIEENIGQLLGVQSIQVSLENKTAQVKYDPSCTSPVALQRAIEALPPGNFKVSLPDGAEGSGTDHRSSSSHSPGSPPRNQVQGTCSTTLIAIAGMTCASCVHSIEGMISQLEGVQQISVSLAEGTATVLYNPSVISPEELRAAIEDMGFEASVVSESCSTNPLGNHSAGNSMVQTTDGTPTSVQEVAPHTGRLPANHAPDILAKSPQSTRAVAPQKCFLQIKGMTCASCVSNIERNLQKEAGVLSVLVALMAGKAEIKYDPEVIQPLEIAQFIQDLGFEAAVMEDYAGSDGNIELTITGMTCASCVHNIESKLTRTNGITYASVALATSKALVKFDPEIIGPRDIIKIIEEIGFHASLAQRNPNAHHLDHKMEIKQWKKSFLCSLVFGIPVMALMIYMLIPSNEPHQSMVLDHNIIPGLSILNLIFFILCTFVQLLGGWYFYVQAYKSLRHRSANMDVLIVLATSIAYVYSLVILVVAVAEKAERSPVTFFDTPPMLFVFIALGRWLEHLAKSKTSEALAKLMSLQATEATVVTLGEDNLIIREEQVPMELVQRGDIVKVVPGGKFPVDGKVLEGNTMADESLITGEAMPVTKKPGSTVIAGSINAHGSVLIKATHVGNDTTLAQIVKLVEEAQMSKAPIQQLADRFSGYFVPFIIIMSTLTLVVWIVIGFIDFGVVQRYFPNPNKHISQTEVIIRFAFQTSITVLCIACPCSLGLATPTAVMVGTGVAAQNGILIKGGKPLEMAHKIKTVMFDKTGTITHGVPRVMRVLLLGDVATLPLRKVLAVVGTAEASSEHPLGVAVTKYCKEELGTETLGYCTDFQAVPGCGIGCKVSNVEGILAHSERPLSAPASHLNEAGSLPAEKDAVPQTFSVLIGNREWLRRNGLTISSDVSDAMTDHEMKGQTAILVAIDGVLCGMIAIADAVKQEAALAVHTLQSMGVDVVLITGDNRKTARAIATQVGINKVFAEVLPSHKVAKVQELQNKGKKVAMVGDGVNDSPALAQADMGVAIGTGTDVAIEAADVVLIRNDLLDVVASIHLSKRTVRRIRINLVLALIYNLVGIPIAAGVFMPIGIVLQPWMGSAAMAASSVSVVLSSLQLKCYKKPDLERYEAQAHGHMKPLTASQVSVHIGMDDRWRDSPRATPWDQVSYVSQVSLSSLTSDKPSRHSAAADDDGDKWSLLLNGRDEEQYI

Key:
Assay in all cases: pull-down; Glutathione-sepharose (GSH) precipitation of lysates of HEK293T cells co-transfected with GST-COMMD fusion and ATP7B-Flag; precipitates washed, SDS-PAGE, immunoblot; also in HEK293T cells with stable knockdown of COMMD1 (shCOMMD1) or empty shRNA vector (shControl)
[1] = target: COMMD1 fused to GST (UniProt Q8N668)
[2] = target: COMMD2 as GST fusion protein (UniProt Q86X83)
[3] = target: COMMD8 as GST fusion protein (UniProt Q9NX08)
[4] = target: COMMD10 as GST fusion protein (UniProt Q9Y6G5)

- binding [1]: binds
- binding [2]: binds
- binding [3]: binds
- binding [4]: binds
Substance: ATP7B-Flag (from UniProt P35670 1-1465)
